# Patent publication US20180362585A1 (Bicycle, published 2018)
# The chains behind the UniProt entries cited, without tags or fusion partners. Residues count along the entry.
# UniProt P14272, residues 391-638: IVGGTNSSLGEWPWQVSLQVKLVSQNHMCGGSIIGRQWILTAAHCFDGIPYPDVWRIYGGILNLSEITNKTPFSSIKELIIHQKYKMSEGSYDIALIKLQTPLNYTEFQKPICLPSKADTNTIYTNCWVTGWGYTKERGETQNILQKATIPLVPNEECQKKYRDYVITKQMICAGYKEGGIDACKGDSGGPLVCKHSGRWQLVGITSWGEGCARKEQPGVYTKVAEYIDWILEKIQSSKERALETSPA
# Results are given in words; binding and its absence hold for the method and conditions named. Some entries that bind do so weakly or less than the wild type.
# Target: T1, rat plasma Kallikrein (rat, UniProt P14272 391-638, limits assumed)
# T1 construct: domain: catalytic domain; also called rPK; rat PK
# Assay: enzyme inhibition
# Procedure: Functional enzyme assays were conducted in 10 mM Tris HCl, 150 mM NaCl, 10 mM MgCl2, 1 mM CaCl₂) and 1 mg/mL BSA (all Sigma UK) pH7.4 at 25° C. in solid black 96 well plates. […] Release of AMC was measured using a Pherastar FS (BMG Labtech), excitation 360 nm, emission 460 nm. The rate of the linear phase of the reaction, typically 5 to 45 minutes, was calculated in MARS data analysis software (BMG labtech). The rate was then used to calculate the IC50 and Ki in Prism (GraphPad).
row,binding,Binder
1,binds,ACRWPARCLHQDLCA (3 Cys on TMB) [06-34-05]
2,binds,ACSWPARCVHQDLCA (3 Cys on TMB) [06-34-01]
3,binds,ACRWPARCTHQDLCA (3 Cys on TMB) [06-34-02]
4,binds,ACRWPARCMHQDLCA (3 Cys on TMB) [06-34-04]
